Drawing on the supplement of paper PMC12819154, “High-throughput peptide-centric local stability assay extends protein–ligand identification to membrane proteins, tissues and bacteria” (Nature Structural & Molecular Biology, 2025), this text covers log2 fold change for 31 targets.

Protein sequences, listed by entry. Tags and fused reporters are not part of them. Lines headed by an entry give the natural chain unless they say otherwise; changes in a name come on top.
UniProt Q5NCX5: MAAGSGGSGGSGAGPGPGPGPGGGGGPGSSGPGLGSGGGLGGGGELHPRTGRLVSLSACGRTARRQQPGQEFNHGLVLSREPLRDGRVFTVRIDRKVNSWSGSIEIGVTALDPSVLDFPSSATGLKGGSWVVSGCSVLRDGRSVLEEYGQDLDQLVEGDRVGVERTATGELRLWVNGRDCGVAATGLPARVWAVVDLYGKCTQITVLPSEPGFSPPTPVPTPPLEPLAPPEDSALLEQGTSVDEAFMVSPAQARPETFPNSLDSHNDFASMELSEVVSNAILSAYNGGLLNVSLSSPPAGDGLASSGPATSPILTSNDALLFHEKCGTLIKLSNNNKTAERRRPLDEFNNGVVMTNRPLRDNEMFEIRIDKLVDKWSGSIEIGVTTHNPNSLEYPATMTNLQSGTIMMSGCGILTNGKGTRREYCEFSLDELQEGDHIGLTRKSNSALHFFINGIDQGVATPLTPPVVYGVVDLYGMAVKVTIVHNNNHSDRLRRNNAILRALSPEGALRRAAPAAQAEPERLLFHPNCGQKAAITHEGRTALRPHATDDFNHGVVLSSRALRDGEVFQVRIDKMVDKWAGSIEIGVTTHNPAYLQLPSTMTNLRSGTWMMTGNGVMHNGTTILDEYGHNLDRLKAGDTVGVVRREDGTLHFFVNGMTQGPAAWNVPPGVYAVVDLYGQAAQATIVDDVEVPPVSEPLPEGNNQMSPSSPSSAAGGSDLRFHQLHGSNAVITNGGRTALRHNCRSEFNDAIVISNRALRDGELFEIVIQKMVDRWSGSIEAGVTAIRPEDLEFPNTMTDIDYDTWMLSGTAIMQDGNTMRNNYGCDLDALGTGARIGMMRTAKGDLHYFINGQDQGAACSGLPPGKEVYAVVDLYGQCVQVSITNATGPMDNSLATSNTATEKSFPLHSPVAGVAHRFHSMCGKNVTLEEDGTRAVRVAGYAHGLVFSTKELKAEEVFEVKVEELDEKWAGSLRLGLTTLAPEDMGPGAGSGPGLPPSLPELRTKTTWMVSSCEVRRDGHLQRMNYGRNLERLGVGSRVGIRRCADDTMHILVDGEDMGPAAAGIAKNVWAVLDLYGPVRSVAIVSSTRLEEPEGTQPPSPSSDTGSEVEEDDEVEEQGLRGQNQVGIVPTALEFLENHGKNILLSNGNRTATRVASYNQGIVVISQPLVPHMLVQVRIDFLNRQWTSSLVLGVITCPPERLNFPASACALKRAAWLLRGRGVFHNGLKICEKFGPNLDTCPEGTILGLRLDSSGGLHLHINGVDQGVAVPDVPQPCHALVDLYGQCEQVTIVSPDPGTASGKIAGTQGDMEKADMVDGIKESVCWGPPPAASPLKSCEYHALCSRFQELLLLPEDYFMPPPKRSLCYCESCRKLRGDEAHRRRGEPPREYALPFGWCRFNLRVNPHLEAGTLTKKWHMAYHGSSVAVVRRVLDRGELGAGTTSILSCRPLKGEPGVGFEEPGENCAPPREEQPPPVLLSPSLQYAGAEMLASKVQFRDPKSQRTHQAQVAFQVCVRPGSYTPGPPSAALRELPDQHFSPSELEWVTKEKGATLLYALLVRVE
UniProt Q5U431: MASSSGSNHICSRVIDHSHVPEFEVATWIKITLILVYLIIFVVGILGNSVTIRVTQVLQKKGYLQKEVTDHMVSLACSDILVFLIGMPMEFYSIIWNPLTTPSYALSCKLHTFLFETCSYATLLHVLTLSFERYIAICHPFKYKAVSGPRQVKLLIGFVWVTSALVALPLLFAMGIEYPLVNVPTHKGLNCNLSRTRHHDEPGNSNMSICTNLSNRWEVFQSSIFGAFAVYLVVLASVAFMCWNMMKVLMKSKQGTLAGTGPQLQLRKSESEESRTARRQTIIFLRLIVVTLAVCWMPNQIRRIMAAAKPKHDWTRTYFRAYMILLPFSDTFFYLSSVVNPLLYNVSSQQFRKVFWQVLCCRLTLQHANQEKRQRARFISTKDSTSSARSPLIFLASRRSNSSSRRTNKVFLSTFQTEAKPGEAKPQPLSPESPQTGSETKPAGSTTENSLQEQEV
UniProt Q5SPL2: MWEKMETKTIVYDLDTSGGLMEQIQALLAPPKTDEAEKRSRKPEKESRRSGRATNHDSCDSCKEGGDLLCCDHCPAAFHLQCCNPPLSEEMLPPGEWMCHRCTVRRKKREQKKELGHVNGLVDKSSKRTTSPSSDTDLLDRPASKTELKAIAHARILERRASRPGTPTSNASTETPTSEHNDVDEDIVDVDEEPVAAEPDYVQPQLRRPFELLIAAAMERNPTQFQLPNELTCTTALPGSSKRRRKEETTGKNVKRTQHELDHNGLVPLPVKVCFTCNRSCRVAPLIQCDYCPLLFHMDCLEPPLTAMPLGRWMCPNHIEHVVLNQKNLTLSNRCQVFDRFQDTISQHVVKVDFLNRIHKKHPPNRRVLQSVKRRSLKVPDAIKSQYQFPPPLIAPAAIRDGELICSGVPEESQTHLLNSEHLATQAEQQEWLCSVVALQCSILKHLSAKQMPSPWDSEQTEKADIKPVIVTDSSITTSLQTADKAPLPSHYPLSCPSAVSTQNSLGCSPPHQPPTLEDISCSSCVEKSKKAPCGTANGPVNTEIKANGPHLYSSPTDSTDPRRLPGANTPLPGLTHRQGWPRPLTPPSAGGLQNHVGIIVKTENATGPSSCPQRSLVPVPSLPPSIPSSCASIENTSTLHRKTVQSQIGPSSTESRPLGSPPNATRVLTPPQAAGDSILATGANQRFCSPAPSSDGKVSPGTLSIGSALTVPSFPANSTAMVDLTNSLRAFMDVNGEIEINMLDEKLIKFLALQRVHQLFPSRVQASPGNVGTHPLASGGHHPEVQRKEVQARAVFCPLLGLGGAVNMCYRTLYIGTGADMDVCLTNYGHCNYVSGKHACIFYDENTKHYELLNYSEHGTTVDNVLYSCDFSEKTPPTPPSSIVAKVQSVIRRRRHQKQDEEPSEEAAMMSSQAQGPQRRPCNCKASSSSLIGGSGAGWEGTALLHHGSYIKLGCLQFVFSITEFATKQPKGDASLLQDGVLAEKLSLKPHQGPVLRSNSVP
UniProt Q5XPI3: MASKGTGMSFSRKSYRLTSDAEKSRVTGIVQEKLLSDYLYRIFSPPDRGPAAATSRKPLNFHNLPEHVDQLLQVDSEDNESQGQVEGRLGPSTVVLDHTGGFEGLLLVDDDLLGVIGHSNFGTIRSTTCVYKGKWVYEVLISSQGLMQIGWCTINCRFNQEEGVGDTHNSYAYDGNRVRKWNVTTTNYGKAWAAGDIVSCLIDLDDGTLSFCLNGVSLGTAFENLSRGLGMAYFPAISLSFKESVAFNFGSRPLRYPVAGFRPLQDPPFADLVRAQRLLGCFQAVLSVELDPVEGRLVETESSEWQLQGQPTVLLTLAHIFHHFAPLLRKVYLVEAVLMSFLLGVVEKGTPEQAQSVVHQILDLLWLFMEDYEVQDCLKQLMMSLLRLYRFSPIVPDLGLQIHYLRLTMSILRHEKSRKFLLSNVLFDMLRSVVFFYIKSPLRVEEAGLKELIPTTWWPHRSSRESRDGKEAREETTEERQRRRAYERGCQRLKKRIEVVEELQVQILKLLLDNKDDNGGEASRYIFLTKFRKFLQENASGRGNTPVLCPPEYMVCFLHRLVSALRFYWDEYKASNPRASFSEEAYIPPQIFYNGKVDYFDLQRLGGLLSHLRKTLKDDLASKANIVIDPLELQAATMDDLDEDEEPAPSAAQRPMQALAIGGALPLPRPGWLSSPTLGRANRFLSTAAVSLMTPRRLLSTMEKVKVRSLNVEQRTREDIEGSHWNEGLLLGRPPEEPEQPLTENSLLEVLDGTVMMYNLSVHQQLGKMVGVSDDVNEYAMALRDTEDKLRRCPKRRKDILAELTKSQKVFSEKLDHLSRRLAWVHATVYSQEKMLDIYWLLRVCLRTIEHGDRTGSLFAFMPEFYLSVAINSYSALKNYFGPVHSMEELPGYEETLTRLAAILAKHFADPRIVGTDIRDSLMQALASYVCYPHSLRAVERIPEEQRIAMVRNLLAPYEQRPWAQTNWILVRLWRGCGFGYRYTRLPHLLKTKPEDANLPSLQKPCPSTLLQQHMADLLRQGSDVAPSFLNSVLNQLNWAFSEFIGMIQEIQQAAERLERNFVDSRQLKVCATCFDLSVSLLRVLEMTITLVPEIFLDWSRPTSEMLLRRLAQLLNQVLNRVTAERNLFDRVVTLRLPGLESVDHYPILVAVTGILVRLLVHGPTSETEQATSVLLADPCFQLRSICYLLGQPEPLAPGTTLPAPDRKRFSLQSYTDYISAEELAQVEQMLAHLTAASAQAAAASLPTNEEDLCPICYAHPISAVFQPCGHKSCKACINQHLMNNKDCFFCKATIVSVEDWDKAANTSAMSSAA
UniProt Q60872, whole entry: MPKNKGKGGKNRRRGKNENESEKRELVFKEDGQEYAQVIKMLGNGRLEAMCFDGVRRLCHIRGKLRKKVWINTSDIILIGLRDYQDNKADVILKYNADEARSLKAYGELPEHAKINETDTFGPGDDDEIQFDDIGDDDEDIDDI
UniProt Q61249: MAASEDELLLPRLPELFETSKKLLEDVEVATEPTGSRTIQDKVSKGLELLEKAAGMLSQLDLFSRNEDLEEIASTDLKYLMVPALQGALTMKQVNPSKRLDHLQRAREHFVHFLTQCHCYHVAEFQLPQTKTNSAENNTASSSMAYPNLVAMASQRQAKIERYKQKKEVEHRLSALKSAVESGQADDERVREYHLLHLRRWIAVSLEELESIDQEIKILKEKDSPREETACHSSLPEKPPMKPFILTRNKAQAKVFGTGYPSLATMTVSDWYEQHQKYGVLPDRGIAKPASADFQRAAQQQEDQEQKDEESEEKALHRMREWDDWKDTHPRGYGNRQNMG
UniProt Q61048: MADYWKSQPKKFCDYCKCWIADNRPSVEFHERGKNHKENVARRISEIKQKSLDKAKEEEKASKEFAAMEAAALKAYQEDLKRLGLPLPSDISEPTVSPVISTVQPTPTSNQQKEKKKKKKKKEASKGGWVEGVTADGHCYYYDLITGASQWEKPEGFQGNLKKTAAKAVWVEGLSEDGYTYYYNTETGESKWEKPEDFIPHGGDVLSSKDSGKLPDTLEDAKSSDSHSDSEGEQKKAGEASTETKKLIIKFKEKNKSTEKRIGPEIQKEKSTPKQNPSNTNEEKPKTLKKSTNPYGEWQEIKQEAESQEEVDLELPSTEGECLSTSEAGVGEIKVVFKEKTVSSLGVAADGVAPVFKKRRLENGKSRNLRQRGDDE
UniProt Q5I1X5: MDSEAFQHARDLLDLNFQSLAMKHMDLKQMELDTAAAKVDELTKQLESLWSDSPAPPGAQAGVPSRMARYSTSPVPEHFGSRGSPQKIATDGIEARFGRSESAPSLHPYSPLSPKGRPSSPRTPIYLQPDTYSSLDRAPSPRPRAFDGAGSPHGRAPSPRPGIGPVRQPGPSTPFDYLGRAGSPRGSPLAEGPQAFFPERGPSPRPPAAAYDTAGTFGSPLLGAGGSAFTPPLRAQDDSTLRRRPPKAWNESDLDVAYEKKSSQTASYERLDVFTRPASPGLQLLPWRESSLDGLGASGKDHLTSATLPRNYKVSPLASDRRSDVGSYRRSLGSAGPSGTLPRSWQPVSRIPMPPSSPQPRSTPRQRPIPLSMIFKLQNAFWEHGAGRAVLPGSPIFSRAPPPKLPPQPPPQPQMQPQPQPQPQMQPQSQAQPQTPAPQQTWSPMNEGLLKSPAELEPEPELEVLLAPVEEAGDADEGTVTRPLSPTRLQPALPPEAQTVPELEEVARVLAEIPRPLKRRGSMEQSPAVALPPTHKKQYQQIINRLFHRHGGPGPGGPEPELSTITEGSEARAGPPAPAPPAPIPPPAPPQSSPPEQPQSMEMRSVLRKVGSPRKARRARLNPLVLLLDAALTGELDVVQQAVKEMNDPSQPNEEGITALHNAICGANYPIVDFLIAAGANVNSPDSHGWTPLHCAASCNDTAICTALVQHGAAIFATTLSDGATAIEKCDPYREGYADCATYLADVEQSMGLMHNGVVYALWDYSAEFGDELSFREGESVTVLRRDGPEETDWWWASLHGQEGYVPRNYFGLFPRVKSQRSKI
UniProt Q60739: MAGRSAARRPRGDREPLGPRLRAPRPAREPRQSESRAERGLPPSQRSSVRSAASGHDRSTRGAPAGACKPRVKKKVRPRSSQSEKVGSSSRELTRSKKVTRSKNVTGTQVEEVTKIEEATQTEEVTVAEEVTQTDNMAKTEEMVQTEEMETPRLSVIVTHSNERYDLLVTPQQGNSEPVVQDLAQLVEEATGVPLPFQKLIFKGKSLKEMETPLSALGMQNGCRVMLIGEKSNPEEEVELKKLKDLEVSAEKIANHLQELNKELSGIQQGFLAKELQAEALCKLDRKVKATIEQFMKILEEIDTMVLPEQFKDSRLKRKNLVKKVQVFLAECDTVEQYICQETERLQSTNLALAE

The list shows a part of the results. Small differences around the control level are noise.

Compound in this assay: CN[C@@H]1C[C@H]2O[C@@](C)([C@@H]1OC)n1c3ccccc3c3c4c(c5c6ccccc6n2c5c31)C(=O)NC4 [staurosporine]
Nature of the assay: log2 fold change of tryptic peptide abundance, ligand vs vehicle (limited proteolysis) (log2 ratio); higher = more trypsin-susceptible (destabilized). As to conditions: ligand concentration: 20 uM; sample: mouse liver crude lysate; replicate design: treated separately.
Regarding “UniProt Q61102 (peptide sequence: VQNQDSLGWDAKK, peptide start residue: 712)”, the log2 fold change was -0.127. For the target “UniProt Q5NCX5 (peptide sequence: IAGTQGDMEK, peptide start residue: 1304)”, the log2 fold change was 0.177.

Regarding “UniProt Q60750 (peptide sequence: LQPDTTYIVR, peptide start residue: 507)”, the log2 fold change is 0.161. The same measure for “UniProt Q60668 (peptide sequence: MFIGGLSWDTTKK, peptide start residue: 99)”: 0.184. With “UniProt Q5RJG7 (peptide sequence: SIIQRYGHK, peptide start residue: 105)” the figure was -0.125; with “UniProt Q5U431 (peptide sequence: SPLIFLASR, peptide start residue: 390)”, -0.131.

In the case of “UniProt Q5SPL2 (peptide sequence: VHQLFPSR, peptide start residue: 757)”, the log2 fold change was 0.476.

As to “UniProt Q5XPI3 (peptide sequence: ELIPTTWWPHR, peptide start residue: 451)”, the log2 fold change is -0.21.

Turning to “UniProt Q60872 (peptide sequence: DYQDNKADVILKYNADEAR, peptide start residue: 83)”, the log2 fold change was -0.207. The same measure for “UniProt Q60775 (peptide sequence: AANPKDPVEVGQPSEVLR, peptide start residue: 352)”: 0.0895. As for “UniProt Q5HZH7 (peptide sequence: SVMQDFWKK, peptide start residue: 316)”, the log2 fold change was 0.00672.

With “UniProt Q61249 (peptide sequence: EYHLLHLRR, peptide start residue: 192)”, the log2 fold change came out at 0.545.

Regarding “UniProt Q61048 (peptide sequence: KSTNPYGEWQEIK, peptide start residue: 290)”, the log2 fold change was determined as 0.237. With “UniProt Q5SSK3 (peptide sequence: SVNIVEHR, peptide start residue: 99)” the figure was -0.125. The same measure for “UniProt Q5I1X5 (peptide sequence: AFDGAGSPHGR, peptide start residue: 145)”: -0.329. In the case of “UniProt Q61029 (peptide sequence: PEFLEDPSVLTKDKLK, peptide start residue: 2)”, the log2 fold change is -0.13.

Regarding “UniProt Q5NBX1 (peptide sequence: ILMNGSAR, peptide start residue: 1111)”, the log2 fold change is 0.307. With “UniProt Q60841 (peptide sequence: TVMLDTFSSAPVPQHER, peptide start residue: 2669)” the figure was -0.216. As for “UniProt Q60759 (peptide sequence: CEDNCIR, peptide start residue: 228)”, the log2 fold change is -0.244. With “UniProt Q5SVQ0 (peptide sequence: SQQQPTPVTPK, peptide start residue: 82)” the figure was -0.0923; with “UniProt Q5U4F6 (peptide sequence: GFALAVQQLPR, peptide start residue: 312)”, 0.755. With “UniProt Q5QGU6 (peptide sequence: VNPQTSNPTK, peptide start residue: 281)”, the log2 fold change was -0.387. Turning to “UniProt Q61193 (peptide sequence: SRDPEEGGDPGGR, peptide start residue: 25)”, the log2 fold change is -0.204. The same measure for “UniProt Q60739 (peptide sequence: ATIEQFMK, peptide start residue: 290)”: 0.386.

For the target “UniProt Q60778 (peptide sequence: TPLGSALLRPNPILAR, peptide start residue: 276)”, the log2 fold change was -0.091. Turning to “UniProt Q5SS80 (peptide sequence: GRLDFTR, peptide start residue: 176)”, the log2 fold change amounted to 0.536.

In the case of “UniProt Q60992 (peptide sequence: VVEKDSWIHITEAK, peptide start residue: 712)”, the log2 fold change stood at 0.288. With “UniProt Q5SRX1 (peptide sequence: GNSLAEQR, peptide start residue: 392)” the figure was -0.161. With “UniProt Q5ND29 (peptide sequence: LAAVQTQLR, peptide start residue: 161)” the figure was 0.0762; with “UniProt Q60780 (peptide sequence: LSNKTEEDIK, peptide start residue: 306)”, 0.243.

For the target “UniProt Q5U5Q9 (peptide sequence: GSHVSQGNEAEQR, peptide start residue: 167)”, the log2 fold change amounted to 1.05.
